Experimental data from the supplement of paper PMC10849652.
Some of the results follow.

The chains behind the UniProt entries cited, without tags or fusion partners. Where a name states a change or a piece, a line headed by the entry shows the natural chain unless it says otherwise.
UniProt P62308, whole entry, looked up: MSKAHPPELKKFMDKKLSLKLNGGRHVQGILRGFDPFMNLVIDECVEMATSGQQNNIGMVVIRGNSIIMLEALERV
UniProt Q96GM5, whole entry, looked up: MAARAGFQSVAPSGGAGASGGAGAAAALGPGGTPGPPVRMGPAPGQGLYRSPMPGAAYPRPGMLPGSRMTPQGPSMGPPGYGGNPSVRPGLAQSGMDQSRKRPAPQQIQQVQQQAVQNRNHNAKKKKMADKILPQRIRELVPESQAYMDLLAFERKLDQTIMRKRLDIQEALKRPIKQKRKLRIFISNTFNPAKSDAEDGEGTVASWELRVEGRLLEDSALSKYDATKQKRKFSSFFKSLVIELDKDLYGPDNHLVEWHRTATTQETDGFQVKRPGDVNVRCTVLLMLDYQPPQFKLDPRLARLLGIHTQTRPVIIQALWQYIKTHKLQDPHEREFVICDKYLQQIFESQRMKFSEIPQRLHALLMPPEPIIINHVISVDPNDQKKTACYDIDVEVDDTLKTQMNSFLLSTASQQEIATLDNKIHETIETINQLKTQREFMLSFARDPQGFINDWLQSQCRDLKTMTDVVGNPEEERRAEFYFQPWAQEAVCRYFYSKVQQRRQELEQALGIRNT
UniProt P08621, whole entry, looked up: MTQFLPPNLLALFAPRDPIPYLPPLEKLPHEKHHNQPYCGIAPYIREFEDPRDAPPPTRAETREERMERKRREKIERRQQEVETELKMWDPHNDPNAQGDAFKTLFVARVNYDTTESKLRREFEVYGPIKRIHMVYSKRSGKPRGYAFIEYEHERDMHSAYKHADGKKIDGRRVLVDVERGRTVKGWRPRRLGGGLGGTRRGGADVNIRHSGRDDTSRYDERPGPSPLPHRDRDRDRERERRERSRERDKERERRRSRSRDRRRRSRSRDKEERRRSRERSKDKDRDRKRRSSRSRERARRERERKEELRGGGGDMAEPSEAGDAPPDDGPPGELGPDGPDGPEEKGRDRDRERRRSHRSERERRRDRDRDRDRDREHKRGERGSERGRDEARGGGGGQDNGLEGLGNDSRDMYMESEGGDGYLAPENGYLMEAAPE
UniProt O60749: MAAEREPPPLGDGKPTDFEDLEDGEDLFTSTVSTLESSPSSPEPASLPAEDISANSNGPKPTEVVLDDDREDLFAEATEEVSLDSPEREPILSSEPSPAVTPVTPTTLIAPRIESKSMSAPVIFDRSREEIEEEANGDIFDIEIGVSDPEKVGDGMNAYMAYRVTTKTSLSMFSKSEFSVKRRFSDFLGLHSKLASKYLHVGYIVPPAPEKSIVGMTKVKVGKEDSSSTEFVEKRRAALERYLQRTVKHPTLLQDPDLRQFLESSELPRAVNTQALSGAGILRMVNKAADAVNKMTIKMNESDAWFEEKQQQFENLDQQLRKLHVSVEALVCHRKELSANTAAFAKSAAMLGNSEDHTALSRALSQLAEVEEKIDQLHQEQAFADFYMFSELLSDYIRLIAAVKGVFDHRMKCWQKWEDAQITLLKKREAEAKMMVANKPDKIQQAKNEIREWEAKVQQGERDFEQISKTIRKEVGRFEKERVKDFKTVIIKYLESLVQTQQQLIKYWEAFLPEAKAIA
UniProt P51532, whole entry, looked up: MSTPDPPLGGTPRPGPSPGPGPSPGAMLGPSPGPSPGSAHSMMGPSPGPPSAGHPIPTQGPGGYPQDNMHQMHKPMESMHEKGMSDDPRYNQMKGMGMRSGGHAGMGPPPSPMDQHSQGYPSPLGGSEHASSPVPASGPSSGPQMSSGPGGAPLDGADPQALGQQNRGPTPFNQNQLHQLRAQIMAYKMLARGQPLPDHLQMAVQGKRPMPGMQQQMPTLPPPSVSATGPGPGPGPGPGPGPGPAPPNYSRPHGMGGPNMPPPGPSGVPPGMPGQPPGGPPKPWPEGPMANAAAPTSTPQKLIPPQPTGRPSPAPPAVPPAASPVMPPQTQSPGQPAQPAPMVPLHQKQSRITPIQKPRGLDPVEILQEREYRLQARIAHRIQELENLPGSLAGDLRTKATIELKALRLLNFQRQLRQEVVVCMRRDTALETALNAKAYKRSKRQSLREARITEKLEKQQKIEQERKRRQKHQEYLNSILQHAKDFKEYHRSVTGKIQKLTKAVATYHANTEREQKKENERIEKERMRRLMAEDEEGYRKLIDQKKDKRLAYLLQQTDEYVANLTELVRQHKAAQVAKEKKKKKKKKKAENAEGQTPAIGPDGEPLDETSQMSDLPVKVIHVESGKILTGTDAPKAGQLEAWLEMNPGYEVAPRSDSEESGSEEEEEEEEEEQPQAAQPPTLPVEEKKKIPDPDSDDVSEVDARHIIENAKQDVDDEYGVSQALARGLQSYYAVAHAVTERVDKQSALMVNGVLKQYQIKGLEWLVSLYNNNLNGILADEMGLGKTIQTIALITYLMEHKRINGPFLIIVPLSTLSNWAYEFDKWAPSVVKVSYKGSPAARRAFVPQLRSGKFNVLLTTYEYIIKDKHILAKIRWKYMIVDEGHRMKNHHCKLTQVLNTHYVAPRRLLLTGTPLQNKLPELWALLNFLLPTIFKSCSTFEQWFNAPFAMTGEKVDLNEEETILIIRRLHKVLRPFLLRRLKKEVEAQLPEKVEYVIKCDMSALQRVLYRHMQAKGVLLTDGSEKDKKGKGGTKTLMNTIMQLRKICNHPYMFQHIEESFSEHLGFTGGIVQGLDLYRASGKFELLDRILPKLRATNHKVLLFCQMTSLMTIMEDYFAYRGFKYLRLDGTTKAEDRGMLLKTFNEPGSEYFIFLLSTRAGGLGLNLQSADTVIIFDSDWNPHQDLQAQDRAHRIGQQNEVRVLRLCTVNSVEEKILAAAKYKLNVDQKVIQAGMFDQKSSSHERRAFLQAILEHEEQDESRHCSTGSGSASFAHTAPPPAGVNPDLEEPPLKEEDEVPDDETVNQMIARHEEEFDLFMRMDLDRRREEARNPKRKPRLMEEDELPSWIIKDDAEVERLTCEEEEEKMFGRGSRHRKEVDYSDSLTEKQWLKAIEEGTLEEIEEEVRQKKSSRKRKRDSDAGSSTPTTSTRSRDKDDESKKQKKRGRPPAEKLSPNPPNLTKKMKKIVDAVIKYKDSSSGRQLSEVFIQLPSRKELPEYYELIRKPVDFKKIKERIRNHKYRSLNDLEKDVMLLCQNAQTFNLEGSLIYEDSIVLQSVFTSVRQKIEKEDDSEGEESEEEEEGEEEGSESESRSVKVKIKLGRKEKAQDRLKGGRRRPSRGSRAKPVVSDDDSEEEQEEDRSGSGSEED
UniProt Q16637, whole entry, looked up: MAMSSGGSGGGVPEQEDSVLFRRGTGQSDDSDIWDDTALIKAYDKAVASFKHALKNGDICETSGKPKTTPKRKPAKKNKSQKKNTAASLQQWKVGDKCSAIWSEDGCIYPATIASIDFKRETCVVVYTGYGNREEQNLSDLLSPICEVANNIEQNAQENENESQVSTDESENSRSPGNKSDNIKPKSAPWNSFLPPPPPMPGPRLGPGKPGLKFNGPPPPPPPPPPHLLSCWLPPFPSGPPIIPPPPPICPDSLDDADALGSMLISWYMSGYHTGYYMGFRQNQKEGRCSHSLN
UniProt O00161: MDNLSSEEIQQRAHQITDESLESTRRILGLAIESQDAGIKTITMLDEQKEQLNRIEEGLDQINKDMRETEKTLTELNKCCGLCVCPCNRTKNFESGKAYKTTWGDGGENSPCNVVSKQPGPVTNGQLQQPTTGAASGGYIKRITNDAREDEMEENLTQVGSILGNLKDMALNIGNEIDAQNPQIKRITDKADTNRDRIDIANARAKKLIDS
UniProt Q13425: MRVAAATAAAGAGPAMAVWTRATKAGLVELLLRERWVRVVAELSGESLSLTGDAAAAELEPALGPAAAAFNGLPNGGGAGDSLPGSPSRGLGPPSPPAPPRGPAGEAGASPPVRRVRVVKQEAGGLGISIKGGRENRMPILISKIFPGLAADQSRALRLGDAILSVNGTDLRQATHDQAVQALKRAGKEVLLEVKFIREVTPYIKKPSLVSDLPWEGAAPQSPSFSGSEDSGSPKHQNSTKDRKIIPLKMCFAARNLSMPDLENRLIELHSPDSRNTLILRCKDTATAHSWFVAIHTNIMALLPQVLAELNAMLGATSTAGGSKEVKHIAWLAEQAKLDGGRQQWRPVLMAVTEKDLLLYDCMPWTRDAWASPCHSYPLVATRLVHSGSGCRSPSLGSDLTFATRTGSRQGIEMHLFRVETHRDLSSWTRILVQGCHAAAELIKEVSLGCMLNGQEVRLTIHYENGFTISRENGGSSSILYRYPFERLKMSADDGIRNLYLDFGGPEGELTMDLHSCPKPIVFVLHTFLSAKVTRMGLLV
UniProt O95295: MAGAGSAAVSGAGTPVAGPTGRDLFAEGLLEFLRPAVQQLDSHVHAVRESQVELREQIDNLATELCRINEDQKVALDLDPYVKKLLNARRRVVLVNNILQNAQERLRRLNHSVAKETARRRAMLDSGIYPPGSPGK
UniProt O75391: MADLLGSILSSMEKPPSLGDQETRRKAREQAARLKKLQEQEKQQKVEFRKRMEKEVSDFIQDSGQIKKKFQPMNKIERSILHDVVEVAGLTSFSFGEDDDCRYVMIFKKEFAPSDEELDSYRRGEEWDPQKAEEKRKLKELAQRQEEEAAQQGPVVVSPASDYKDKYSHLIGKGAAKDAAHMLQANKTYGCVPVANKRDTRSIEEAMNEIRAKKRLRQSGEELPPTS
UniProt O60493, whole entry, looked up: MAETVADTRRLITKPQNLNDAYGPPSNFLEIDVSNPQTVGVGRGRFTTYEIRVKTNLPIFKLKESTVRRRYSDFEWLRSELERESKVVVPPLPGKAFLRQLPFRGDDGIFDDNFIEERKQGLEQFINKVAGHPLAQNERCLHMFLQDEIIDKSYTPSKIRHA
UniProt P09234, whole entry, looked up: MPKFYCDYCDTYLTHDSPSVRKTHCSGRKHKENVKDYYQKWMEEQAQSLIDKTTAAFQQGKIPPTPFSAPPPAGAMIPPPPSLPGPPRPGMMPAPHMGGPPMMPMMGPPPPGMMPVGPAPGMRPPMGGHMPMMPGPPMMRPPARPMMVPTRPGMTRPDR
UniProt Q15036: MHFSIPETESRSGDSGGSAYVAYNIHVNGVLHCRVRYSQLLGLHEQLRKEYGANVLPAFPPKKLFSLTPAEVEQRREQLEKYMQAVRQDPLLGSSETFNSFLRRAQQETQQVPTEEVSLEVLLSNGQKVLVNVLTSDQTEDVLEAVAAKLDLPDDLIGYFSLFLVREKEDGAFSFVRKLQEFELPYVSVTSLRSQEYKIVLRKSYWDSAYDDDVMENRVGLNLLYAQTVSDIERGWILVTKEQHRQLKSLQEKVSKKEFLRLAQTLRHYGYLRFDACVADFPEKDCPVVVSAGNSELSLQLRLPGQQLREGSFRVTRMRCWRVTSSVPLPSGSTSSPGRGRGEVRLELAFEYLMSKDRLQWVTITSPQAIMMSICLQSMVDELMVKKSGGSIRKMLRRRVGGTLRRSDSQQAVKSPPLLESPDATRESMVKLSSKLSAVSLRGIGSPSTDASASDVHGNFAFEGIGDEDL
UniProt Q92925, whole entry, looked up: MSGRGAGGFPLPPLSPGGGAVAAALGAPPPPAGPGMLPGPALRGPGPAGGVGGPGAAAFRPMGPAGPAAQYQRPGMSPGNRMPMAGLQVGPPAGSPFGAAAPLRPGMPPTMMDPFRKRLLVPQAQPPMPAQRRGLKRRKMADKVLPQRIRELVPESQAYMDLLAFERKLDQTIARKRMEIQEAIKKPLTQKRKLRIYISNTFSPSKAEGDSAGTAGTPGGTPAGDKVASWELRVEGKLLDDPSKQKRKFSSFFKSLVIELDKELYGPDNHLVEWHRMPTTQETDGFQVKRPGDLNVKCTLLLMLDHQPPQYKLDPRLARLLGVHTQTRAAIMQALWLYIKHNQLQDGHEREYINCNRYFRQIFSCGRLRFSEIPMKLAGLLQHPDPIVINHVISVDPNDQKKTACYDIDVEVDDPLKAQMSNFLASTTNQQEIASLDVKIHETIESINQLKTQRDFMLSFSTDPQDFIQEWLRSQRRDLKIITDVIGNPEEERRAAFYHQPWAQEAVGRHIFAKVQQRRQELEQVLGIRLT
UniProt Q12824, whole entry, looked up: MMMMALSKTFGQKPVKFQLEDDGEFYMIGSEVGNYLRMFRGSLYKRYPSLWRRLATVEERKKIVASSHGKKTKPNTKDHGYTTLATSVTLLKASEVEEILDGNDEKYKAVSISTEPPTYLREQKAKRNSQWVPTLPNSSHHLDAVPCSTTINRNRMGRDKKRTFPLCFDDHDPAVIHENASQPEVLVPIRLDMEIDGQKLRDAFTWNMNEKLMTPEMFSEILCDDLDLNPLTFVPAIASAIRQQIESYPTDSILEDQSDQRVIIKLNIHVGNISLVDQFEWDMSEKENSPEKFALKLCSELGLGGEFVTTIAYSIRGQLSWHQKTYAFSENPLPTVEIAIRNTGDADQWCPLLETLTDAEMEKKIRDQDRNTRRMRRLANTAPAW
UniProt P62316, whole entry, looked up: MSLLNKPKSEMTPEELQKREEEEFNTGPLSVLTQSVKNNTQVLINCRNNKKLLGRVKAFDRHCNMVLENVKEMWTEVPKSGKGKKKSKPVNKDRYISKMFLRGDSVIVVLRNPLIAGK
UniProt P62304, whole entry, looked up: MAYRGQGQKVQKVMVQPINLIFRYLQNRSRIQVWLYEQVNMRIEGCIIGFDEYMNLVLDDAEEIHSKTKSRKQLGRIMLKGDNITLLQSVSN

Each target was assayed with C1=CC=C(C=C1)C2=NC(=C(N2)C3=CC=NC=C3)C4=CC(=C(C=C4)Cl)O (assay: log2 fold change, soluble protein after heating vs DMSO (PISA); higher = thermal stabilisation; K562 lysate, 10 uM; active = over 0.2 and 3.5 SD of the protein, either way, in both replicates (recomputed)).
In short: (§1)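 Quantification was by TMTpro 16plex LC-MS/MS with equalised channel sums, applied to the supernatant after 21,000xg for 90 min. Samples were crude K562 extract at 1 mg/mL protein in PBS pH 7.4 with 1 mM MgCl2, treated with 10 μM compound for 30 min, heated for 3 min across 48°C-58°C, pooled and brought to 0.5% NP-40 at 4°C. Values are log-two fold changes in thermal stability relative to solvent controls, from duplicates.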

log2 fold change, inactive:
SNRPG (UniProt P62308) -0.007
SNX27 (UniProt Q96L92) -0.03
SMARCD1 (UniProt Q96GM5) 0.025
SNRNP70 (UniProt P08621) -0.013
SNX2 (UniProt O60749) -0.042
SMARCA4 (UniProt P51532) -0.003
SPAG9 (UniProt O60271) -0.002
SMCHD1 (UniProt A6NHR9) 0.022
SNRPD3 (UniProt P62318) -0.013
SMN1 (UniProt Q16637) 0.096
SNAP23 (UniProt O00161) 0.039
SOGA1 isoform 2 (UniProt O94964) -0.009
SORBS1 isoform 8 (UniProt Q9BX66) 0.007
SNTB2 (UniProt Q13425) -0.001
SMARCAD1 isoform 2 (UniProt Q9H4L7) 0.041
SNX15 (UniProt Q9NRS6) -0.002
SNAPIN (UniProt O95295) 0.013
SPAG7 (UniProt O75391) 0.023
SMC1B isoform 3 (UniProt Q8NDV3) 0.02
SNX3 (UniProt O60493) -0.002
SNRPF (UniProt P62306) 0.028
SNRNP40 (UniProt Q96DI7) 0.009
SNRNP200 (UniProt O75643) -0.024
SPARC (UniProt P09486) 0.05
SNRPC (UniProt P09234) 0
SNX17 (UniProt Q15036) -0.039
SMARCD2 (UniProt Q92925) -0.023
SMARCAL1 (UniProt Q9NZC9) 0.062
SMARCB1 (UniProt Q12824) -0.025
SNRNP48 (UniProt Q6IEG0) 0.023
SNRPC (UniProt Q5TAL2) -0.03
SNX11 (UniProt Q9Y5W9) 0.008
SNCA (UniProt P37840) -0.02
SMU1 (UniProt Q2TAY7) -0.009
SNRPB isoform 3 (UniProt P14678) -0.002
SNRPD2 (UniProt P62316) -0.001
SMARCC2 (UniProt Q8TAQ2) -0.01
SNX6, A0A0A0MRI2 0.013
SNRPE (UniProt P62304) 0.017

Each target was assayed with C1=CC=C2C(=C1)C3=NNC4=CC=CC(=C43)C2=O in the same assay as above.
In short: as §1

log2 fold change, inactive:
SNRPG (UniProt P62308) -0.011
SNX27 (UniProt Q96L92) -0.038
SMARCD1 (UniProt Q96GM5) -0.036
SNRNP70 (UniProt P08621) 0.037
SNX2 (UniProt O60749) -0.069
SMARCA4 (UniProt P51532) -0.017
SPAG9 (UniProt O60271) 0.006
SMCHD1 (UniProt A6NHR9) -0.027
SNRPD3 (UniProt P62318) 0.033
SMN1 (UniProt Q16637) -0.068
SNAP23 (UniProt O00161) 0.022
SOGA1 isoform 2 (UniProt O94964) -0.035
SORBS1 isoform 8 (UniProt Q9BX66) -0.011
SNTB2 (UniProt Q13425) -0.09
SMARCAD1 isoform 2 (UniProt Q9H4L7) -0.052
SNX15 (UniProt Q9NRS6) 0.008
SNAPIN (UniProt O95295) 0
SPAG7 (UniProt O75391) -0.007
SMC1B isoform 3 (UniProt Q8NDV3) -0.032
SNX3 (UniProt O60493) 0.003
SNRPF (UniProt P62306) -0.034
SNRNP40 (UniProt Q96DI7) 0.011
SNRNP200 (UniProt O75643) -0.022
SPARC (UniProt P09486) -0.016
SNRPC (UniProt P09234) -0.009
SNX17 (UniProt Q15036) -0.029
SMARCD2 (UniProt Q92925) -0.019
SMARCAL1 (UniProt Q9NZC9) -0.032
SMARCB1 (UniProt Q12824) -0.011
SNRNP48 (UniProt Q6IEG0) 0.153
SNRPC (UniProt Q5TAL2) 0.011
SNX11 (UniProt Q9Y5W9) -0.035
SNCA (UniProt P37840) 0.044
SMU1 (UniProt Q2TAY7) 0.013
SNRPB isoform 3 (UniProt P14678) 0.035
SNRPD2 (UniProt P62316) -0.035
SMARCC2 (UniProt Q8TAQ2) -0.02
SNX6, A0A0A0MRI2 -0.073
SNRPE (UniProt P62304) -0.002
